Test results as given in PMC9498520.
Results are given in words; binding and its absence hold for the method and conditions named. Binding seen in cells or lysates may run through a third protein. A yes stands for co-enrichment or nearness to the bait. Other partners may have been found.

Amino acid sequences for entries named in this document (tags omitted).
UniProt P52480: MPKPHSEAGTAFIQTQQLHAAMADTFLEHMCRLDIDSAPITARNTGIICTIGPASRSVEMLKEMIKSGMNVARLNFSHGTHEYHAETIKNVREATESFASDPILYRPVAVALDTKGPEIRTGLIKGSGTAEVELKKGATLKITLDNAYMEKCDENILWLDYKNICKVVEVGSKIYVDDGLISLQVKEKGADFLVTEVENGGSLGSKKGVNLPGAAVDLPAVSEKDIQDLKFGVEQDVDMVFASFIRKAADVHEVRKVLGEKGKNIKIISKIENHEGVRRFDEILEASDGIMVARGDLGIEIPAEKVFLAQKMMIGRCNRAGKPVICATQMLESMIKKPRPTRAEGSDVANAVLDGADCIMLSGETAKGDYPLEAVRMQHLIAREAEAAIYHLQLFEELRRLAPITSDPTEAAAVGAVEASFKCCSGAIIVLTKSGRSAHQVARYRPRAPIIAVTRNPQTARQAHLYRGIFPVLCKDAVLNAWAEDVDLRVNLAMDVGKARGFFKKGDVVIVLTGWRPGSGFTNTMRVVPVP

T1: Enolase-1 (ENO1) (mouse (endogenous in NMuMG)), P17182
T1 chain: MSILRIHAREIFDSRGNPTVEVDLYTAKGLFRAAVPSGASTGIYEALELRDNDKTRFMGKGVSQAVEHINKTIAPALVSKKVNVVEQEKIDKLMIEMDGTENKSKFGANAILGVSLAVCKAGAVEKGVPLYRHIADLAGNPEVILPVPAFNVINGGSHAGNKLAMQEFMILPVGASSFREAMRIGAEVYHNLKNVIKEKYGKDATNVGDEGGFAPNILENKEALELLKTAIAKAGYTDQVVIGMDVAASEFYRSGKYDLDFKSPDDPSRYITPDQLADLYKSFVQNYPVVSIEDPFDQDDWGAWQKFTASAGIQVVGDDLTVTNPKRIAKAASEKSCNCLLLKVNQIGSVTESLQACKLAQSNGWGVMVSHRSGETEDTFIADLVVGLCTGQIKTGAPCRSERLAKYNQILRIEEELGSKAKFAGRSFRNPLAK


Experiments:
[1] = biological target: Enolase-1 (ENO1) (mouse (endogenous in NMuMG)) (UniProt P17182); experiment: affinity purification with mass spectrometry; co-immunoprecipitation with an antibody against ENO-1 from UV-crosslinked extracts of control and Lnc-Nr6a1-depleted NMuMG cells; precipitated proteins analysed by quantitative mass spectrometry (spectral counting); markedly lower amounts in Lnc-Nr6a1-depleted cells
[2] = biological target: T1, Enolase-1 (ENO1) (mouse (endogenous in …)); experiment: as above; conditions: remark: other sources report otherwise

binding [1] | binding [2] | Molecule
binds | – | Pyruvate kinase (PKM) (from UniProt P52480 1-531) (enzyme)
binds | – | Phosphoglycerate mutase (PGAM1) (enzyme, UniProt Q9DBJ1 1-254) MAAYKLVLIRHGESAWNLENRFSGWYDADLSPAGHEEAKRGGQALRDAGYEFDICFTSVQKRAIRTLWTVLDAIDQMWLPVVRTWRLNERHYGGLTGLNKAETAAKHGEAQVKIWRRSYDVPPPPMEPDHPFYSNISKDRRYADLTEDQLPSCESLKDTIARALPFWNEEIVPQIKEGKRVLIAAHGNSLRGIVKHLEGLSEEAIMELNLPTGIPIVYELDKNLKPIKPMQFLGDEETVRKAMEAVAAQGKVKK
– | binds | Phosphoglycerate kinase (PGK1), P09411 1-417 (enzyme) MSLSNKLTLDKLDVKGKRVVMRVDFNVPMKNNQITNNQRIKAAVPSIKFCLDNGAKSVVLMSHLGRPDGVPMPDKYSLEPVAAELKSLLGKDVLFLKDCVGPEVENACANPAAGTVILLENLRFHVEEEGKGKDASGNKVKAEPAKIDAFRASLSKLGDVYVNDAFGTAHRAHSSMVGVNLPQKAGGFLMKKELNYFAKALESPERPFLAILGGAKVADKIQLINNMLDKVNEMIIGGGMAFTFLKVLNNMEIGTSLYDEEGAKIVKDLMSKAEKNGVKITLPVDFVTADKFDENAKTGQATVASGIPAGWMGLDCGTESSKKYAEAVGRAKQIVWNGPVGVFEWEAFARGTKSLMDEVVKATSRGCITIIGGGDTATCCAKWNTEDKVSHVSTGGGASLELLEGKVLPGVDALSNV
